Results on two sequences are retold here after publication PMC12449053.

By UniProt entry, the sequences of proteins in these tests, tags left out. Residues count along the entry.
UniProt P09651, 1-196: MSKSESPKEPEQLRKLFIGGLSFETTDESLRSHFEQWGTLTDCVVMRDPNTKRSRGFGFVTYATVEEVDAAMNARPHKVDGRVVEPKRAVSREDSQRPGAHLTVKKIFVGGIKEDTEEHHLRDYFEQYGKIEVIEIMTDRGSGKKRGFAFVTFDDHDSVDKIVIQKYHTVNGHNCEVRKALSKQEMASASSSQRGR

The target in one series is UP1 (UniProt P09651). Kind of series: ITC. To be noted: 50 mM KCl, one-site fit, Kd not in material, ITC: 10 mM KPi, 25 C, 8 uM UP1, recombinant protein.
In another series the target is GST-hnRNPA1 (UniProt P09651). Kind of series: EMSA. To be noted: Li+ buffer, protein:RNA 10:1; EMSA: 50 mM Tris-HCl pH 7.4, 50 mM KCl, 1 mM EDTA, 1 mM Na3VO4, 5 mM NaF, 1 mM DTT, 8% glycerol, 25 C, 30 nM RNA; recombinant protein; protein details: GST (N-terminal, pGEX4T1); label: Cy5.5 5'. (In EMSA bound probe runs differently from free probe, usually more slowly.)

The exact form of at least one protein or probe is not confirmed. For some assays here: A weaker result is weaker than the reference pair of the same experiment. For some assays here: At least one verdict rests on a figure or table, not on a statement of the authors.

As to GGCGGCGGAGG [utr-1], the binding result in the series with UP1 is “binds”.

Turning to “GCAGCGGCGGCGGCAGUGGCGGCGGCGAAGGUGGCGGCGGC [41-mer 5'UTR (utr-c + utr-z)]”, the binding result with GST-hnRNPA1 is “binds more weakly”.
